From paper PMC3414849 come the findings set out here.

For series [1], the target named is GST-Fd3F Forkhead domain (Fd3F-Fkh) (UniProt Q9W4Q1). Nature of the series: competition with a labelled probe. The settings on record: 10 mM Tris-HCl (pH not stated), 1 mM DTT, 1 mM EDTA, 100 mM NaCl, 20 min on ice, 20 ul, native 6% PAGE in 0.5x TBE, competitor 10 nM, recombinant protein, protein details: GST (N-terminal, pGEX-2T).
Series [2] has the same target. Nature of the series: EMSA. The settings on record: 12.5 uM protein, 0.1 nM probe; 10 mM Tris-HCl (pH not stated), 1 mM DTT, 1 mM EDTA, 100 mM NaCl; 20 min on ice; 20 ul; native 6% PAGE in 0.5x TBE; competitor 10 nM; recombinant protein; protein details: GST (N-terminal, pGEX-2T); label: 33P 5' end (probe), unlabelled as competitor.

The exact form of at least one protein or probe is not confirmed. For some assays here: No signal at the amounts used counts as a negative.

Turning to “ATCATGGGTCATCGAACAAACAAGCCGAGAAGGTTGT (double strand) [iav-F1]”, the binding result in series [1] (label: 33P 5' end (probe), unlabelled as competitor) is reported as “binds”; in series [2], “binds”.

“GCACGGAAATGTTTTATCACGAGCCACCAATGGACAA (double strand) [nan-F1m]”: in series [1] (100-fold excess cold nan-F1m, no effect on complex, label: none (cold competitor)), the binding result is “no binding”.

Regarding “GCACGGAAATGTTTTATCAATAGCCACCAATGGACAA (double strand) [nan-F1]”, the binding result in series [1] (100-fold excess cold nan-F1 reduces complex, label: 33P 5' end (probe), unlabelled as competitor) is listed as “binds”; in series [2], “binds”.
